From PubChem BioAssay (NCATS)
Inconclusive means that the source gave no clear call. Such entries were picked first, then a sample of the others. Potencies beside an inconclusive call are fits to weak or partial responses and may not hold up. Calls of active or inactive are those of the source. Calls follow the shape of the dose curve; as a rule, active = well fitted curve in the direction sought with a large enough effect; inconclusive = small, poorly fitted or top-dose-only effect, or another doubt; inactive = no such curve, though single readings can be large; an effect the other way counts as inactive or inconclusive.

Experiments:
[1] = Quantitative High-Throughput drug screen in 47 multiple myeloma cell lines against the NCATS MIPE library collection: JIM3_ECACC cell viability assay (AID 1918963; also: nearly all actives have a fitted effect of over 35% in size); conditions: JIM3 myeloma viability, CellTiter-Glo ATP, 48 h; viability, percent of control: at 45.8 µM (top of the series) unless noted
Method in brief: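 Primary qHTS used for cherry-picking: cells at 500/well, library compounds for 48 h (37C, 5% CO2), luminescent ATP assay.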

[2] = Quantitative High-Throughput drug screen in 47 multiple myeloma cell lines against the NCATS MIPE library collection: JIM1_ECACC cell viability assay (AID 1918964); conditions: JIM1 myeloma viability, CellTiter-Glo ATP luminescence, 48 h; viability (% of DMSO): at 45.8 µM (top of the series)
Method in brief: (§1)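 Luminescent ATP measurement with CellTiter-Glo gives viability, scaled between DMSO-only wells (100%) and media-only wells (0%). Cells, 500 per well, faced library compounds for 48 hours at 37C.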

[3] = Quantitative High-Throughput drug screen in 47 multiple myeloma cell lines against the NCATS MIPE library collection: INA6_PLB cell viability assay (AID 1918965; also: nearly all actives have a fitted effect of over 55% in size); conditions: INA6 myeloma viability, CellTiter-Glo ATP luminescence, 48 h; viability (% of control): at 45.8 µM (top of the series)
Method in brief: (§2)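 We plated 500 myeloma cells per well, pinned in MIPE 4.0 compounds, and incubated for 48 hours at 37C. ATP was then quantified with CellTiter-Glo, with DMSO and media-only wells defining 100% and 0%.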

[4] = Quantitative High-Throughput drug screen in 47 multiple myeloma cell lines against the NCATS MIPE library collection: JJN3_DSMZ cell viability assay (AID 1918966; also: nearly all actives have a fitted effect of over 50% in size); conditions: JJN3 myeloma cells viability, CellTiter-Glo ATP, 48 h; viability, % of DMSO: at 45.8 µM (top of the series)
Method in brief: as §1

[5] = Quantitative High-Throughput drug screen in 47 multiple myeloma cell lines against the NCATS MIPE library collection: H1112_PLB cell viability assay (AID 1918967; also: nearly all actives have a fitted effect of over 30% in size); conditions: H1112 myeloma cells viability, ATP luminescence, 48 h; viability: at 45.8 µM (top of the series)
Method in brief: as §1

[6] = Quantitative High-Throughput drug screen in 47 multiple myeloma cell lines against the NCATS MIPE library collection: KMS27_JCRB cell viability assay (AID 1918970); conditions: KMS27 myeloma cells, CellTiter-Glo ATP viability, 48 h; viability (% of DMSO): at 45.8 µM (top of the series); also: nearly all actives have a fitted effect of over 30% in size
Method in brief: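 ATP-based viability (CellTiter-Glo luminescence) is measured in cells treated 48 h with approved and investigational drugs at 37 °C. Controls are DMSO-only wells for full viability and media-only wells for none.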

[7] = Quantitative High-Throughput drug screen in 47 multiple myeloma cell lines against the NCATS MIPE library collection: KMS12BM_JCRB cell viability assay (AID 1918971); also: nearly all actives have a fitted effect of over 35% in size
Method in brief: (§3)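 Steps: seed 500 cells per well; pin-transfer MIPE 4.0 library; incubate 48 h at 37C, 5% CO2, humidified; add CellTiter-Glo, 5 min room temperature; read luminescence.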

[8] = Quantitative High-Throughput drug screen in 47 multiple myeloma cell lines against the NCATS MIPE library collection: MMM1_PLB cell viability assay (AID 1918976); also: nearly all actives have a fitted effect of over 35% in size
Method in brief: (§4)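 Plated at 500 cells per well, myeloma lines received MIPE 4.0 compounds by pin tool. Following 48 h culture at 37 °C, CellTiter-Glo luminescence gave viability relative to DMSO and media-only controls.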

[9] = Quantitative High-Throughput drug screen in 47 multiple myeloma cell lines against the NCATS MIPE library collection: MOLP8_DSMZ cell viability assay (AID 1918977); conditions: MOLP8 myeloma viability, CellTiter-Glo ATP luminescence, 48 h; viability (% of control): at 45.8 µM (top of the series); also: nearly all actives have a fitted effect of over 45% in size
Method in brief: as §4

[10] = Quantitative High-Throughput drug screen in 47 multiple myeloma cell lines against the NCATS MIPE library collection: OCIMY1_PLB cell viability assay (AID 1918979); also: nearly all actives have a fitted effect of over 35% in size
Method in brief: as §4

[11] = Quantitative High-Throughput drug screen in 47 multiple myeloma cell lines against the NCATS MIPE library collection: LP1_DSMZ cell viability assay (AID 1918982); also: nearly all actives have a fitted effect of over 35% in size
Method in brief: as §4

[12] = Quantitative High-Throughput drug screen in 47 multiple myeloma cell lines against the NCATS MIPE library collection: KMS28PE_JCRB cell viability assay (AID 1918983); also: nearly all actives have a fitted effect of over 35% in size
Method in brief: as §4

[13] = Quantitative High-Throughput drug screen in 47 multiple myeloma cell lines against the NCATS MIPE library collection: Karpas25_ECACC cell viability assay (AID 1918968; also: nearly all actives have a fitted effect of over 35% in size); conditions: Karpas25 myeloma viability, CellTiter-Glo ATP, 48 h; viability (% of control): at 45.8 µM (top of the series)
Method in brief: as §1

[14] = Quantitative High-Throughput drug screen in 47 multiple myeloma cell lines against the NCATS MIPE library collection: KMS12PE_JCRB cell viability assay (AID 1918972); conditions: KMS12PE myeloma viability, CellTiter-Glo ATP, 48 h; viability: at 45.8 µM (top of the series); also: nearly all actives have a fitted effect of over 30% in size
Method in brief: as §2

[15] = Quantitative High-Throughput drug screen in 47 multiple myeloma cell lines against the NCATS MIPE library collection: KMS20_JCRB cell viability assay (AID 1918973); conditions: CellTiter-Glo ATP, 48 h; viability (% of DMSO): at 45.8 µM (top of the series); also: nearly all actives have a fitted effect of over 45% in size
Method in brief: as §1

[16] = Quantitative High-Throughput drug screen in 47 multiple myeloma cell lines against the NCATS MIPE library collection: KMS21BM_JCRB cell viability assay (AID 1918974); conditions: ATP luminescence, 48 h; viability: at 45.8 µM (top of the series) unless noted
Method in brief: as §1

[17] = Quantitative High-Throughput drug screen in 47 multiple myeloma cell lines against the NCATS MIPE library collection: KMS26_JCRB cell viability assay (AID 1918975); conditions: KMS26 myeloma cells viability, CellTiter-Glo ATP, 48 h; viability (% of DMSO): at 45.8 µM (top of the series); also: nearly all actives have a fitted effect of over 45% in size
Method in brief: as §3

[18] = Quantitative High-Throughput drug screen in 47 multiple myeloma cell lines against the NCATS MIPE library collection: MM1R_ATCC cell viability assay (AID 1918981); also: nearly all actives have a fitted effect of over 35% in size
Method in brief: as §4

[19] = Quantitative High-Throughput drug screen in 47 multiple myeloma cell lines against the NCATS MIPE library collection: MM1S_ATCC cell viability assay (AID 1918980); also: nearly all actives have a fitted effect of over 45% in size
Method in brief: as §4
Potency is read from the fitted curve at half-maximal effect.

| SMILES | Potency [1] | Potency [2] | Potency [3] | Potency [4] | Potency [5] | Potency [6] | Potency [7] | Potency [8] | Potency [9] | Potency [10] | Potency [11] | Potency [12] | Potency [13] | Potency [14] | Potency [15] | Potency [16] | Potency [17] | Potency [18] | Potency [19] | viability (% of DMSO) [15] |
| --- | --- | --- | --- | --- | --- | --- | --- | --- | --- | --- | --- | --- | --- | --- | --- | --- | --- | --- | --- | --- |
| CN(C)C(=O)[C@H](O)[C@H](Cc1ccccc1)NC(=O)c1cc2cc(Cl)ccc2[nH]1 | inconclusive: 1.66 µM [cytotoxic, full curve] | inconclusive: 9.35 µM [cytotoxic, full curve] | active: 0.833 µM | active: 1.66 µM | inconclusive: 5.26 µM [cytotoxic, full curve] | inconclusive: 37.2 µM [cytotoxic, partial curve, poor fit] | inconclusive: 33.2 µM [cytotoxic, single point] | inconclusive: 20.9 µM [cytotoxic, partial curve, poor fit] | inconclusive: 37.2 µM [cytotoxic, single point] | inconclusive: 0.833 µM [rising, full curve, poor fit] | inconclusive: 3.72 µM [cytotoxic, full curve] | inconclusive: 0.264 µM [rising, full curve] |  |  |  |  |  |  |  |  |
| CN(CCOc1ccc(CC2SC(=O)NC2=O)cc1)c1ccccn1 (centres undefined) | inactive | inconclusive: 0.001 µM | inactive | inconclusive: 0.0066 µM [cytotoxic, full curve, poor fit] |  | inactive | inconclusive: 0.118 µM [cytotoxic, full curve, poor fit] |  | inactive | inactive |  |  | inactive | inactive | inactive | inconclusive: 20.9 µM [rising, partial curve] | inconclusive: 0.0059 µM [cytotoxic, full curve, poor fit] | inconclusive: 0.332 µM [cytotoxic, full curve, poor fit] |  |  |
| CCCC(CCC)C(=O)O | inconclusive: 33.2 µM [cytotoxic, single point] | inactive | inactive | inconclusive: 0.0019 µM [rising, full curve, poor fit] | inconclusive: 29.6 µM [cytotoxic, single point] |  | inactive | inconclusive: 0.105 µM [rising, full curve] |  |  |  |  | inconclusive: 37.2 µM [cytotoxic, single point] |  | inconclusive: 37.2 µM [cytotoxic, single point] |  |  |  | inconclusive: 7.43 µM [cytotoxic, full curve] |  |
| O=C(NOCC(O)CO)c1cc(Br)c(F)c(F)c1Nc1ccc(I)cc1F (centres undefined) | inconclusive: 0.418 µM [cytotoxic, full curve] | inconclusive: 0.0019 µM [rising, full curve, poor fit] | inconclusive: 20.9 µM [cytotoxic, partial curve, poor fit] | inconclusive: 0.0059 µM [rising, full curve, poor fit] |  |  | inconclusive: 0.0019 µM [rising, full curve] | inconclusive: 0.148 µM [rising, full curve, poor fit] | inactive |  | inconclusive: 29.6 µM [cytotoxic, single point] | inactive | inconclusive: 6.62 µM [cytotoxic, partial curve, poor fit] | inconclusive: 0.0017 µM [rising, full curve, poor fit] |  | inconclusive: 1.18 µM [rising, full curve, poor fit] | inactive |  | inconclusive: 0.935 µM [cytotoxic, full curve, poor fit] | inconclusive: 7.39% [cytotoxic] |
| O=C1c2ccccc2-c2n[nH]c3cccc1c23 | inactive | inconclusive: 11.8 µM [cytotoxic, partial curve, poor fit] | active: 20.9 µM | inconclusive: 20.9 µM [cytotoxic, partial curve, poor fit] |  | active: 2.96 µM | inconclusive: 33.2 µM [cytotoxic, single point] | inconclusive: 0.0059 µM [rising, full curve] | inconclusive: 14.8 µM [cytotoxic, partial curve, poor fit] |  | inactive |  | inconclusive: 23.5 µM [cytotoxic, single point] | inconclusive: 9.35 µM [cytotoxic, partial curve, poor fit] | inconclusive: 3.32 µM [cytotoxic, full curve, poor fit] | inconclusive: 18.7 µM [cytotoxic, partial curve, poor fit] | inconclusive: 37.2 µM [cytotoxic, single point] | inconclusive: 3.72 µM [cytotoxic, full curve, poor fit] |  |  |
| Cc1cccc(-c2nn(C(=S)Nc3ccccc3)cc2-c2ccnc3ccccc23)n1 | active: 13.2 µM | inconclusive: 0.001 µM [cytotoxic] | inconclusive: 16.6 µM [cytotoxic, partial curve, poor fit] | inconclusive: 4.18 µM [cytotoxic, partial curve, poor fit] | active: 16.6 µM | inactive |  |  | inconclusive: 0.0235 µM [cytotoxic, full curve, poor fit] |  |  |  | inconclusive: 8.33 µM [cytotoxic, full curve] | inactive | inconclusive: 0.935 µM [cytotoxic, full curve, poor fit] | inconclusive: 33.2 µM [rising, partial curve, poor fit] | active: 6.62 µM | inconclusive: 0.0296 µM [cytotoxic, full curve, poor fit] |  |  |
